Results taken from publication PMC7819943, “Rice protein-binding microarrays: a tool to detect cis-acting elements near promoter regions in rice”.
Some of the results follow.

By UniProt entry, the sequences of proteins in these tests, tags left out.
UniProt Q0JBA9, entry or part of it: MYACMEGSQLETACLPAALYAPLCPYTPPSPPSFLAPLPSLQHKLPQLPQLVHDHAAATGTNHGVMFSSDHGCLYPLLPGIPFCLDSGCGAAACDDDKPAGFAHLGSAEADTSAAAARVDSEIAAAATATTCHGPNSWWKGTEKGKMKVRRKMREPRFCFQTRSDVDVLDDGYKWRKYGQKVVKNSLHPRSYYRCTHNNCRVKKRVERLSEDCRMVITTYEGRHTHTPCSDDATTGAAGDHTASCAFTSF

What follows are sequences tested against OsWRKY34 (Oryza sativa, UniProt Q0JBA9 1-250) (assay: protein-binding microarray (RPBM); PBS, 2% BSA, 51.3 ng/ul salmon testes DNA, 50 uM zinc acetate, 200 nM TF, 25 C, 1 h; high values mean tight binding). Settings: protein: recombinant; tags: N-terminal polyhistidine and DsRed monomer fusion (pET32a); label: CyDye5-dUTP incorporated in the synthesized complementary strand; 3' TTTTT single-stranded linker to array surface; dsDNA, one strand shown.
Procedure, shortened: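 The binding signal is fluorescence intensity per feature, in arbitrary units, read on an Axon 4000B scanner. Polyhistidine- and DsRed-tagged transcription factors (N-terminal fusions) from E. coli BL21-CodonPlus were purified on Ni–NTA and applied at 200 nM for 1 h at 25 °C to a double-stranded, BSA-blocked custom Agilent array in buffer with 50 µM zinc acetate.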

Row | Sequence | binding signal
1 | CTTTTCCATTTCCATGCATTCTTTGATCATCAAGTGATCACGGAGTCACCTAGTGCAG | 12100 fluorescence intensity (a.u.)
2 | AAAGCCACCGTCCTCTACGATATCGCCCAAAAACCTGCCACGGAGTCACCTAGTGCAG | 9000 fluorescence intensity (a.u.)
3 | CTGCGGGCCCGTCTGCACGGCCACCACCGAGAGGCGTCCACGGAGTCACCTAGTGCAG | 8300 fluorescence intensity (a.u.)
4 | TGTTGCAATCTGTTAAAACCAACTTGTATGTAATCCTTATCGGAGTCACCTAGTGCAG | 8670 fluorescence intensity (a.u.)
5 | TGGCGGCGAGGAGCGGCGGCGGCGGGGTTAGGATTCCGGCCGGAGTCACCTAGTGCAG | 8720 fluorescence intensity (a.u.)
6 | AAGTATTAGAGTTATATGAGCTTACCTGTACCCTTTTCTTCGGAGTCACCTAGTGCAG | 9730 fluorescence intensity (a.u.)
7 | GCGTATCTTCCCAATCTTCTCAATCTCCTATTCCTCAAACCGGAGTCACCTAGTGCAG | 9320 fluorescence intensity (a.u.)
8 | ACCGATCTCGCCCATTTCGGCGACAATCTCACCGGTATCTCGGAGTCACCTAGTGCAG | 9290 fluorescence intensity (a.u.)
9 | ATCGCCCTCTTTCTGTTTTGATCATATCAAACTTGGTTCTCGGAGTCACCTAGTGCAG | 10300 fluorescence intensity (a.u.)
10 | AGAACCGCACATATATATGAGAAATCTTTTGTTGGTTTTCCGGAGTCACCTAGTGCAG | 9140 fluorescence intensity (a.u.)
11 | TTTCATTTCACTCGCTGGCATTTCATCTCCTTGACCTATCCGGAGTCACCTAGTGCAG | 9400 fluorescence intensity (a.u.)
12 | CACCTAGCTCTCACTTGCCACCTCAACTTTCACCATTAACCGGAGTCACCTAGTGCAG | 8440 fluorescence intensity (a.u.)
13 | TCAGTTTGCCCTTGCCCACCGCTGCCGCCTCCGGCTCCGGCGGAGTCACCTAGTGCAG | 9240 fluorescence intensity (a.u.)
14 | ATGTGGGTCCTGCGCTGACTCTGCCGCCACGTCGGATAAACGGAGTCACCTAGTGCAG | 9180 fluorescence intensity (a.u.)
15 | CGCCTGTCAAATCCTAGTCAGGGAATCTGTCTTCCATCTACGGAGTCACCTAGTGCAG | 9100 fluorescence intensity (a.u.)
16 | GCTGTTTCTCTCCCTGCTGCTCTCTGCTCCACCATGTAAGCGGAGTCACCTAGTGCAG | 14300 fluorescence intensity (a.u.)
17 | ATTCCCTAACCGGGCTATTTTCTCTCTCGCTGAGGTTTGCCGGAGTCACCTAGTGCAG | 8190 fluorescence intensity (a.u.)
18 | GATCTGCTAGTTTGGAATCAATACTTTACCGTTGCATTGGCGGAGTCACCTAGTGCAG | 8210 fluorescence intensity (a.u.)
19 | CTTGATCCGTCCCTTTCCGCGAGACCCTTCTGCCGCCATGCGGAGTCACCTAGTGCAG | 8320 fluorescence intensity (a.u.)
20 | CGGCGGTTTTGATAGCGGTTTTGGTTGACGTGGCGCCTACCGGAGTCACCTAGTGCAG | 8390 fluorescence intensity (a.u.)
21 | GTACTTTCACTACTTTCCCGTTTCAATAAGGGCATGTACACGGAGTCACCTAGTGCAG | 9870 fluorescence intensity (a.u.)

Row | Sequence | binding signal
22 | TGTGGTGTGCATGTGTATTTGTTGACGTCTCTTTCTCCCACGGAGTCACCTAGTGCAG | 10400 fluorescence intensity (a.u.)
23 | ATCTGATTCGTATCCCTTCTTTTGTTTTCTGGAGTACTTCCGGAGTCACCTAGTGCAG | 13900 fluorescence intensity (a.u.)
24 | TACTACGCGCCCGCCGCTTCTTGCCGCCTCCTCGTGCGCGCGGAGTCACCTAGTGCAG | 8140 fluorescence intensity (a.u.)
25 | TCCTCAACCTATCCAAGATAGTGCCACGGCTATTTTTCTTCGGAGTCACCTAGTGCAG | 10200 fluorescence intensity (a.u.)
26 | GCCTCCGATCCGTTTCATATAATAAGGTGTTTAACTTTTTCGGAGTCACCTAGTGCAG | 9440 fluorescence intensity (a.u.)
27 | CGTCCCGTCTCCACCCGCGCCTCTCCTCTCGTCCCGCGCCCGGAGTCACCTAGTGCAG | 11900 fluorescence intensity (a.u.)
28 | ATGAACTCGGCCTCGTTTATCTCTGACATGTGGGACCGGACGGAGTCACCTAGTGCAG | 9190 fluorescence intensity (a.u.)
29 | GTTATCTTGTGGTATCATGAAACATTTCTCTATACACCACCGGAGTCACCTAGTGCAG | 8690 fluorescence intensity (a.u.)
30 | TCTTGGGTCTTCTTCGTCCCTCGCTGCGGGTGGGTAGCGCCGGAGTCACCTAGTGCAG | 10900 fluorescence intensity (a.u.)
31 | GCTAGTGGTCCCACATGTCAGCTGTGAGCGTACTCGCCTTCGGAGTCACCTAGTGCAG | 8960 fluorescence intensity (a.u.)
32 | ATACACGCGCACACACACGTCACTACTTCACATGCAACACCGGAGTCACCTAGTGCAG | 9840 fluorescence intensity (a.u.)
33 | CGTTGACTTTTTTAAAAGTGTTTGACTGTTCGTCTTTTTTCGGAGTCACCTAGTGCAG | 30500 fluorescence intensity (a.u.)
34 | GCTTCGGCCCAACAACATTCCACTCGGCCCAACAACCACCCGGAGTCACCTAGTGCAG | 9750 fluorescence intensity (a.u.)
35 | TATTGTTCGTCACATCATCCTGTGTGTACCTATATAATATCGGAGTCACCTAGTGCAG | 8660 fluorescence intensity (a.u.)
36 | GGCGGGCGCGGTGGAGGCGGGGAGGAAGGGGAGCGGAGGTCGGAGTCACCTAGTGCAG | 9390 fluorescence intensity (a.u.)
37 | TGTAATGTGATATACCTTTTGAGCTGATCTTGTTGACTTACGGAGTCACCTAGTGCAG | 10100 fluorescence intensity (a.u.)
38 | TATATGTGCACACTGCAGTACTGCACTGTTGTTTTTTCAACGGAGTCACCTAGTGCAG | 9580 fluorescence intensity (a.u.)
39 | AAAGTGTTATGTTGATCGTTGTTGATGTTTAACCATGCTTCGGAGTCACCTAGTGCAG | 8920 fluorescence intensity (a.u.)
40 | TTACCATTGTTGCGATTTGGACCACCACGAATGATTTTTTCGGAGTCACCTAGTGCAG | 9110 fluorescence intensity (a.u.)
41 | TTTTTACATCTTAGCCCCTTGCCGCTTTTGCGAATTTTGCCGGAGTCACCTAGTGCAG | 9810 fluorescence intensity (a.u.)
42 | CTTTTACATTGTGGTTTATGTTTTCACTTCCTATCGAGGTCGGAGTCACCTAGTGCAG | 8430 fluorescence intensity (a.u.)

2 records picked at random from those above, as already listed:
Row | Sequence | binding signal
35 | TATTGTTCGTCACATCATCCTGTGTGTACCTATATAATATCGGAGTCACCTAGTGCAG | 8660 fluorescence intensity (a.u.)
27 | CGTCCCGTCTCCACCCGCGCCTCTCCTCTCGTCCCGCGCCCGGAGTCACCTAGTGCAG | 11900 fluorescence intensity (a.u.)
